Data taken from ChEMBL document CHEMBL3988442, “University of Dundee, Small-Polar-MMV Screening Library” (2021).

The filed quantity is “Percent Effect” (%).
How 0% and 100% were set is not recorded. Most values in the screen are low, and negative values occur.
The compounds are a random part of those screened.

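Whole-cell assay for inhibitors of Mycobacterium tuberculosis growth, labelled Cornell in the record; the read-out is not stated. The concentration is filed as 10 mM, unlikely as a test dose, so the dose is not known. The record gives no direction; compounds strong in two other growth screens of this library score well above the rest, so higher reads as stronger inhibition. Of about 53,000 compounds tested this way, about 900 (1.7%) reached 50% or more in at least one test.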

* CSc1cccc(NC(=O)N2CCCC(CNC(=O)c3ccco3)C2)c1 (centres undefined) | 26.85%
* CCC1CN(c2ncnc3nc[nH]c23)CCO1 (centres undefined) | 31.78%
* Cc1cc(C)nc(N2CCC(CNC(=O)c3cnccn3)CC2)n1 | -13.53%
* CCCOCC(=O)N1CCC2(CC1)c1nc[nH]c1CCN2S(C)(=O)=O | 6.087%
* COCc1nc(CN2CCC3(CCCO3)CCC2=O)no1 (centres undefined) | 6.62%
* Cc1nn(C)c(C)c1CN(CCO)C(=O)C1COc2ccccc2C1 (centres undefined) | -50.9%
* O=C(c1ccc(-c2nc[nH]n2)cc1)N1CCOC(C(F)(F)F)C1 (centres undefined) | -17.45%
* CN(CC(=O)NS(=O)(=O)c1ccc(F)cc1)Cc1ccccc1 | 22.58%
* Cn1cnc2cc(CCC(=O)Nc3n[nH]c(C4CCCO4)n3)ccc21 (centres undefined) | 24.99%
* CC(=O)N1CCOCC(Cc2ccc3c(ccn3C(C)=O)c2)C1 (centres undefined) | -12.77%
* CCc1nnc(NC(=O)N(CCOC)Cc2ccc(C)o2)s1 | -5.144%
* COCCNS(=O)(=O)c1ccc(Cl)c(C(=O)N(C)Cc2sccc2C)c1 | 31%
* O=C(O)C(F)(F)F.[H][C@@]12CCCO[C@]1([H])[C@@H](OC)CN2CC1CCOCC1 | -19.75%
* Cc1nnc(-c2cccc(C#N)c2)n1C1CCCN(C(C)C)C1=O (centres undefined) | 3.277%
* Cc1cccc(C(=O)N2CCC3(CC2)CC(c2cnn(C)c2)CO3)c1 (centres undefined) | -19.97%
* Cc1nc(CC(=O)N(CCN2CCOCC2)Cc2ccco2)c(C)s1 | 16.99%
* Cc1noc(C)c1CCCNc1cnccn1 | 12.95%
* CCOc1ncccc1NC(=O)NCC(O)c1ccccc1OC (centres undefined) | 3.167%
* COC(=O)N1CCC(CNC(=O)C2CC2)CC1 | -4.583%
* CN(C)C(=O)N1CCC2(CC1)CNc1ccc(F)cc12.Cl | 13.21%
* COC(=O)COn1c(SC)nc2ccccc2c1=O | 75.88%
* CCC(CO)n1cnc2scc(C)c2c1=O (centres undefined) | 8.408%
* Cn1ncc2c(N[C@H]3CC[C@@H](N)CC3)nc(C(C)(C)C)nc21 | 37.77%
* Nc1nc2c(c(NCc3nccs3)n1)CCN(CC1CCCC1)CC2 | 4.858%
* [H][C@@]12C[C@H](c3ccnc(C)n3)O[C@@]1([H])CCN(c1cc(OC)ncn1)C2 | -1.571%
* COc1ccc(C2(NC(=O)c3ccc(=O)n(C)n3)CCCC2)cc1 | 29.84%
* CCN1CCN(C(=O)C(C)SC)CC1 (centres undefined) | -18.52%
* Cc1ccc(CN2CCCN(Cc3cscn3)CC2)cc1 | -26.9%
* COCC1CN(C(=O)CC2=CCCCC2)Cc2nnn(CC3CC3)c21 (centres undefined) | 2.745%
* c1cn(Cc2ccc(N3CCCN(C4CCCC4)CC3)nc2)cn1 | -52.91%
* [H][C@@]12C[C@H](C)O[C@]1([H])CCN(C(=O)COC)C2 | -1.113%
* CN(C)CC(NC(=O)c1ccn(C)c(=O)c1)c1ccccc1 (centres undefined) | -16.93%
* CN(C)C(=O)N1CCC(c2nc3ccc(N4CCCC4)cn3n2)CC1.O=C(O)C(F)(F)F | 4.304%
* [H][C@@]12CCN(C(=O)CCc3ccc(Cl)cc3)C[C@]1([H])OCCNC2=O | -44.89%
* CCc1cnc(C)nc1NCC(O)CN1CCCCCC1 (centres undefined) | -18.42%
* O=C(N[C@H]1CN(c2ccncc2)C[C@@H]1C1CC1)C1CCOCC1 | 6.471%
* CC(C)(C)C(=O)N1CCC(n2cc(C3(O)CCCC3)nn2)CC1 | 8.558%
* N#Cc1cccc(NC2CC(=O)N(Cc3ccccc3Cl)C2)n1 (centres undefined) | -13.97%
* CCn1nnc2c1C(COC)CN(Cc1ccsc1)C2.O=C(O)C(F)(F)F (centres undefined) | -2.614%
* CC(=O)NCCSCCOc1cccc(Br)c1 | 19.67%
* C=C(C)Cn1nc(C)c(CN2CCN(C3CCCCC3)C(=O)C2)c1C | 17.54%
* CC(=O)N1CCCN(C(C(=O)O)c2ccccc2OC(F)(F)F)CC1 (centres undefined) | -2.168%
* CC(C)(C)n1ncc(NCC(O)c2ccccc2C(F)(F)F)c(Cl)c1=O (centres undefined) | -14.84%
* Cc1cc(C)n(CC2CCCN2CCC(=O)Nc2cc(C)on2)n1 (centres undefined) | -11.36%
* CNc1ncc(CN(C)CCN2CCCCC2)cn1 | -38.68%
* CCOCCCNC(=O)CCSCc1csc(C)n1 | 28.05%
* CC(O)CCN(C)c1nc2ccccc2c(=O)[nH]1 (centres undefined) | -1.922%
* Cc1cccc(C2CCCCCN2Cc2cn(C)nc2C)c1 (centres undefined) | 15.03%
* Fc1ccc(N2CCCN(c3ccc(Cn4ccnc4)cn3)CC2)cc1 | 26.82%
* O=C(O)C(F)(F)F.O=C(O)C(F)(F)F.[H][C@]12CCN(C(=O)c3cccs3)C[C@@]1([H])OCCN(CCN(C)C)C2 | 15.68%
* O=C(c1cn(CC(=O)N2CCCCC2)c2ccccc12)C1CC1 | -49.03%
* [H][C@@]12C[C@H](C(=O)N3CCOCC3)[C@@]([H])(CN(S(=O)(=O)CC(C)C)C1)O2 | -25.87%
* CSCC(CCO)NC(=O)Nc1cccc(Br)c1C (centres undefined) | 29.22%
* COc1ccc(CNC(=O)NCc2ccc(C(N)=O)cc2)cn1 | 31.75%
* Cn1cnc2c1CCN(CC(O)c1ccc3c(c1)OCCO3)C2 (centres undefined) | -2.457%
* O=C(O)C(F)(F)F.[H][C@]12CCCN(Cc3ccoc3)[C@@]1([H])CN(C(=O)c1ccco1)C2 | 21.83%
* Cn1cccc1C(O)CNS(=O)(=O)c1ccccc1Br (centres undefined) | -0.9823%
* CC(=O)N(C)CC(=O)NCC1(c2cccc(C)c2)CCCC1 | 5.959%
* CCC(Nc1nc(C(C)C)nc2c1cnn2C)c1ccncc1 (centres undefined) | 25.2%
* COc1cc(C)cc(OC)c1C(C(=O)O)N(C)Cc1c(C)nn(C)c1C (centres undefined) | 1.527%

Some entries from above, unchanged:

CCC(CO)n1cnc2scc(C)c2c1=O (centres undefined) gave 8.408%.
COCc1nc(CN2CCC3(CCCO3)CCC2=O)no1 (centres undefined) gave 6.62%.
Cc1nn(C)c(C)c1CN(CCO)C(=O)C1COc2ccccc2C1 (centres undefined) gave -50.9%.
O=C(O)C(F)(F)F.[H][C@]12CCCN(Cc3ccoc3)[C@@]1([H])CN(C(=O)c1ccco1)C2 gave 21.83%.
Cc1cc(C)nc(N2CCC(CNC(=O)c3cnccn3)CC2)n1 gave -13.53%.
O=C(N[C@H]1CN(c2ccncc2)C[C@@H]1C1CC1)C1CCOCC1 gave 6.471%.